Measured values as given in PMC10163288.
Some of the results follow.

B1: il2ra_site2_3nfp_normal_mot_HHH_b1_05536_000000266_0001_21_37_H_._HHH_b2_03404_0001_0001900118_0000001_0_af2pred_0001_1_af2pred_swapped (protein)
chain: SSSSSEEEEFRFAVLVAELLAEELGDPEALERLEELREEYEEEGDPRIFEEISKIAQELLDSSSS
B2: il2ra_site1_3nfp_sap_12_mot_44cd6c0e0f7a4ff4e9b806e9964b2fdf_0001_af2_000000029_0001_35_49_H_._2f079a3b57af2c20eddd8b670d0b743d_0001_1_0001_0000800008_0000001_0 … (protein)
chain: SSSSSESRLREVRELLKRAEEALEEGDPELVRELLEEAQRVAEEGNNPSLRRFVELAIKQVSSSS
B3: il2ra_site1_3nfp_sap_6_mot_HHH_b1_03236_000000173_0001_17_33_H_._HHH_b1_02291_0001_0000100005_0000001_0_0001 (protein)
chain: DDEESIERAIERAAKLAGVPGVEVEVSNNKIHVEFEGNNEQARAASKIVEEMARAINLEIEVRFE
B4: il2ra_site2_3nfp_sap_30_mot_HHH_b1_04805_af2_000000202_0001_1_19_H_._ems_3hC_59_0002_0001_0001100056_0000001_0_0001 (protein)
chain: SSSSSDVAEQSLRLAALRAKREGNEEALEVVEEAIEAYEKGLADDLEIYELLYEAYELLKSSSSS
B5: il2ra_site2_3nfp_normal_mot_HHH_b2_04451_000000238_0001_21_37_H_._HHH_b1_00928_0001_0000200003_0000001_0 (protein)
chain: SSSSDEEEERVREEIERLLKEGDKYEALQLLAELTEEALRNNDEELDRLLLRLFELAQELSSSSS
B6: il2ra_site2_2erj_normal_mot_HHH_b1_00261_000000083_0001_43_58_H_._HHH_b1_03106_0001_0000200009_0000001_0 (protein)
chain: SSSSNERIEKVSELAIELLELFERGDPEEARRLAEEIVEELEELGDPESARYIEYILRIISSSSS
B7: il2ra_site1_2b5i_normal_mot_067def8349c108d94f0197242f5284c2_0001_1_000000273_0001_35_49_H_._4768f0874ff0c59541f1d07f557e6cb6_0001_0001_0000200012_0000001_0_af2 … (protein)
chain: DLAALEALAAAIAETLDNPEAEKAISKLLFRVRAGDEEARRELLELYALAQADPEAALERARKLL
B8: il2ra_site1_2b5i_normal_mot_HHH_b2_04910_000000118_0001_1_19_H_._HHH_b1_00719_af2_0001_0000100004_0000001_0_af2pred_dldesign_0_af2pred (protein)
chain: SSSSSPEVKKAIELFLEANELFQAGKPEEAKKKLEEALKLAKKGKASSLVKMIENALSLISSSSS
B9: il2ra_site2_2erj_sap_18_mot_HHH_b1_00071_af2_000000225_0001_40_56_H_._HHH_b2_01084_0002_0000200007_0000001_0_0001_af2pred_0001_af2pred (protein)
chain: SSSSSDEEETRERVEELLEEAKELPDLREALRLAQEAAELAAKYDDPELLRLVDEVAKKLSSSSS
B10: il2ra_site1_3nfp_normal_mot_HHH_b2_02135_000000263_0001_1_18_H_._HHH_b1_04956_0001_0000100008_0000001_0_af2pred_0001_af2pred_swapped (protein)
chain: SSSSDVSREAQRLAKRISKLIKEGDHEEARELLEELEELARETGSPVAELYVKRLERHIDSSSSS
B11: il2ra_site1_3nfp_normal_mot_HHH_b1_01231_af2_000000170_0001_1_16_H_._HHH_b1_08672_af2_0001_0001700032_0000001_0_af2pred_0001_af2pred_1 (protein)
chain: SSSSDEKKEEALRIAELLLELARRGDREELEELLEKLRELAEELNDPWLERLLRQVERLLSSSSS
B12: il2ra_site1_2b5i_normal_mot_HHH_b1_07881_af2_000000049_0001_1_19_H_._HHH_b1_04949_af2_0001_0000100006_0000001_1 (protein)
chain: SSSSSDEEVEELFHEASELLRRGDPEEAKEVLKEALELAEELGSENEARDIRFFLEQIKLSSSSS
B13: il2ra_site1_2b5i_normal_mot_HHH_b1_01949_af2_000000041_0001_1_19_H_._HHH_b1_05336_af2_0001_0000400018_0000001_0_af2pred_0001_af2pred (protein)
chain: SSSSSEEEQVTELFREASELFRNGNPEEARKVLEEALELARETGDPVAEEDLERLLEMLNSSSSS
B14: il2ra_site1_1z92_sap_22_mot_HHH_b1_07526_000000113_0001_40_57_H_._HHH_b1_06078_af2_0001_0000100008_0000001_0_0001_af2pred_0001_af2pred (protein)
chain: SDIEEILKEAVEKNDEELLERFIKQLLRDTGDPERVEQLLRILVRRLGLPPEVLEELRRLLEELT
B15: il2ra_site1_2b5i_normal_mot_22370d59370c406a0c205a431f537cfa_0001_af2_000000141_0001_1_31_H_._HHH_b2_05265_0001_0000100002_0000001_0 (protein)
chain: SSSSDHELTRFAVRVVWRLAARLGLSNEQRQLLNRLAVELVNRGLSPEEIEEELEKLAEELSSSS
B16: il2ra_site1_2b5i_sap_12_mot_HHH_b2_07873_af2_000000005_0001_23_39_H_._HHH_b2_08174_0001_0000100009_0000001_0_0001_af2pred_dldesign_0_af2pred (protein)
chain: SSSSSEKEDELYDLFQKALEAYRAGKYEEARKLLEEAIKLALELGSTGQAAQLQRLLERLSSSSS
B17: il2ra_site2_3nfp_normal_mot_HHH_b2_08245_af2_000000201_0001_41_55_H_._HHH_b2_03234_af2_0001_0000100013_0000001_1_af2pred_0001_af2pred (protein)
chain: SSSSDEEEEAEEEVREALKRGDDERAKRVVEELALEAAEKNDFELYAAANRLLELILKLEHSSSS
B18: il2ra_site1_1z92_sap_12_mot_7d8a99fbd7d2e4cf462d32eb85bd8b9f_0001_000000000_0001_1_12_H_._753cdabf4d6139bcd7e966370e577bbb_0001_0001_0000200021_0000001_0_0001_a … (protein)
chain: SSSSSDKEEFVEEVVEELVREFGLDEEARELLERAAKHSIENGFSEKSIRRILEFQAKLLSSSSS

target: il2ra, P01589; assay: yeast display titration

Apparent Kd, inactive:
B1 no binding seen, B2 no binding seen, B3 no binding seen, B4 no binding seen, B5 no binding seen, B6 no binding seen, B7 no binding seen, B8 no binding seen, B9 no binding seen, B10 no binding seen, B11 no binding seen, B12 no binding seen, B13 no binding seen, B14 no binding seen, B15 no binding seen, B16 no binding seen, B17 no binding seen, B18 no binding seen
